{"source": "patent US20090130707A1", "about": "“Methods of reducing the inhibitory effect of a redox active metal ion on the enzymatic hydrolysis of cellulosic material” (priority 2007, published 2009)", "system": "Cellulolytic Enzyme Composition #1", "test": "mini-plate-scale AVICEL hydrolysis by Cellulolytic Enzyme Composition #1", "assay_type": "biochemical, Trichoderma reesei", "details": "10 mM, 25 g AVICEL and 0.25 g enzyme per liter, pH 5, 50° C.", "procedure": "Various (biologically common) divalent metal cations with variable ionic radii were tested in 2.8 ml Deep Well Microplates (VWR International, West Chester, Pa., USA) (“mini-plate-scale”) containing 1 ml suspensions of 25 g of AVICEL® per liter in 50 mM sodium acetate pH 5 at 50° C. Cellulolytic Enzyme Composition #1 was added at 0.25 g per liter for each hydrolysis. The mini-plates were sealed at 160° C. for 2 seconds using an ABGENE® ALPS 300™ sealer (ABgene, Rochester, N.Y., USA). The sealed mini-plates were incubated at 50° C. in an INNOVA® 4080 incubator shaker at 150 rpm. Soluble reducing sugars were measured by HPLC as described in Example 30.\nIron-chelator complexes of variable size or redox property were tested for their ability to inhibit enzymatic hydrolysis of cellulose. […]", "note": "Some of these results come from one statement about several compounds together. At least one compound was matched to its structure with a doubt left."}
{"smiles": "[Cl][Fe][Cl]", "note": "[FeCl2, ferrous chloride]", "values": [{"measurement": "Effect on enzymatic cellulolysis: loss in initial rate", "value": "≥ 70", "unit": "%"}, {"measurement": "Effect on enzymatic cellulolysis: loss in extended hydrolysis extent", "setting": "after 4 days", "value": "≥ 70", "unit": "%"}]}
